Measured values: PubChem BioAssay AID2685 (National Center for Advancing Translational Sciences (NCATS), 2010)
The other results are listed elsewhere or left out. These are further read-outs of the screen, such as a control signal, another cell line or another target. No call is given for them. Compounds called inactive in the main read-out are mostly missing here. Potencies come from curve fits of mixed quality, noted in brackets.

Test: qHTS Assay for Lipid Storage Modulators in Drosophila S3 Cells;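 as to cell number change: cells counted by Cell Tracker Red CMTPX staining in the red channel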
Settings: BODIPY lipid droplet fluorescence, 18-24 h; for cell number change: measured here: cell count max response, cells fed with added oleic acid
Method in brief: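 Drosophila S3 cells got compounds at several concentrations plus oleic acid (400 uM solution). Laser-scanning cytometry with 488 nm excitation read lipid droplets at 500-530 nm and cells at 575-640 nm. Percent activity was relative to 20 uM Triacsin C.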

[1] = measured here: lipid fluorescence (Fed channel) AC50, cells fed with added oleic acid
[2] = measured here: cell number channel AC50, cells fed with added oleic acid

Structure (SMILES)	cell number change [%]	AC50 [1]	AC50 [2]
COc1ccccc1C(=O)N1CCc2ccccc21	1.08	–	–
COc1ccc(S(=O)(=O)N2CCC(c3nc4ccccc4[nH]3)CC2)cc1	22.1	5.17 µM [rising, partial curve]	–
COc1ccc(-c2ccnc(-c3ccc(OCCCF)cc3)n2)cc1	–	29.1 µM [rising, single point]	–
CCCCCC1CC(CC(=O)Nc2ccc([N+](=O)[O-])cc2)OC1=O (stereo not drawn)	15.4	0.517 µM [falling, full curve, poor fit]	–
Cc1ccnc(NC(=O)CS(=O)(=O)Cc2ccccc2)c1	25.2	–	–
CO/N=C/c1ccc(Oc2ccc(C)cc2)c([N+](=O)[O-])c1	24.8	23.1 µM [rising, single point]	–
COc1ccc(N/C(C)=C2/C(=O)C(=O)N(CCO)C2c2ccc(Br)cc2)cc1 (stereo not drawn)	10.1	0.731 µM [rising, full curve, poor fit]	–
COC(=O)c1ccc(-n2c(C)cc(/C=N/n3cnnc3)c2C)cc1	11.6	0.58 µM [falling, partial curve]	–
COc1cc(/C=N/NC(=O)C(N)=O)cc(OC)c1O	-14.5	–	–
CCN(CC(=O)NCc1ccc(Cl)cc1)C(=O)c1cc2ccccc2o1	24.6	–	–
Cc1nn(-c2ccccc2)c(N)c1Sc1cccc([N+](=O)[O-])c1	4.13	0.731 µM [rising, partial curve]	4.11 µM [falling, single point]
CN1CCN(CCCn2cnc3c(=O)oc4ccccc4c32)CC1	-41.9	29.1 µM [falling, single point]	1.16 µM [falling, partial curve]
O=C1CC(Sc2nnnn2-c2ccccc2)C(=O)N1c1cccc(Cl)c1 (stereo not drawn)	-101	29.1 µM [falling, single point]	18.4 µM [falling, single point]
O=C(NCCN1CCOCC1)C1CCN(c2nc3ccccc3o2)CC1	9.46	0.58 µM [rising, single point]	–
Cc1noc(C)c1COc1ccc(CC(=O)NCc2ccccc2)cc1	56.1	–	2.06 µM [rising, partial curve, poor fit]
O=C1N=C(N2CCCCC2)SC1=C1CCCCC1	14	2.91 µM [falling, single point]	–
Cc1ccc(C(=O)NCCc2c[nH]c3ccccc23)c(C)c1	25.6	–	0.058 µM [rising, full curve, poor fit]
CN(CC(=O)Nc1cccc(S(=O)(=O)N2CCCC2)c1)CC(=O)Nc1ccc(Cl)c(C(F)(F)F)c1	-40.9	1.46 µM [falling, partial curve]	10.3 µM [falling, partial curve]
CC(=O)OC1c2ccccc2C(=O)N1c1ccccc1C (stereo not drawn)	8.31	3.26 µM [rising, full curve]	–
CC1=NN(C(=O)c2ccc(Br)cc2)C(O)(c2ccccc2)C1 (stereo not drawn)	33.3	29.1 µM [rising, single point]	29.1 µM [rising, single point]

Structure (SMILES)	cell number change [%]	AC50 [1]	AC50 [2]
C=C(C)CNC(=S)Nc1cccc(N)n1	8	–	6.51 µM [falling, single point]
Cc1ccc(/C=N/NC(=O)c2ccccc2OCc2cccc(Br)c2)o1	40	2.06 µM [rising, partial curve]	0.0058 µM [rising, full curve, poor fit]
Cc1ccc(Nc2cc(C)nc3nc(C)nn23)cc1	18.4	1.16 µM [rising, partial curve]	–
Cc1nnc(NC(=O)CCn2c(=O)oc3ccc(Cl)cc32)s1	-6.49	29.1 µM [rising, single point]	–
COc1ccccc1NC(=O)/C(=C/c1ccncc1)NC(=O)c1ccccc1	4.2	6.51 µM [rising, single point]	–
Cc1cc(NC(=O)CSc2ccc3nnc(-c4cccnc4)n3n2)no1	1.15	0.411 µM [rising, partial curve, poor fit]	–
COc1ccc(-n2ncc3c2CC(C)(C)CC3NC(=O)CCC2=NNC(=O)CC2)cc1 (stereo not drawn)	5.67	–	–
Cc1ccnc(NC(=O)C2CCN(S(=O)(=O)c3cccc(C(F)(F)F)c3)CC2)c1	8.95	0.517 µM [rising, full curve, poor fit]	–
COC(=O)C1CC(O)CN1S(=O)(=O)c1cccs1 (stereo not drawn)	87.9	0.164 µM [rising, full curve, poor fit]	29.1 µM [rising, partial curve, poor fit]
CCNC(=O)COC(=O)CCC(=O)c1cccs1	131	29.1 µM [rising, single point]	29.1 µM [rising, single point]
COc1ccc(/C=C(\C#N)C(=O)OCC(=O)Nc2ccc(C(C)(C)C)cc2)cc1	4.3	0.411 µM [falling, full curve]	–
Cc1ccc(C#N)c(SCc2ccccc2[N+](=O)[O-])n1	11.4	29.1 µM [rising, single point]	–
O=C(Nc1cccc2ccccc12)c1ccc(Br)o1	9.06	3.66 µM [rising, partial curve, poor fit]	–
CCCCn1c(N)c(NCc2ccccc2)c(=O)[nH]c1=O	15.1	10.3 µM [rising, partial curve]	–
CCc1nc(SCC(=O)N2c3ccccc3Sc3ccccc32)c2ccccc2n1	8.2	–	–
O=C(CSc1nccc(=O)[nH]1)Nc1ccc(Oc2ccccc2)cc1	12.6	29.1 µM [rising, single point]	–
CC(=O)Nc1ccc(NC(=S)Nc2ccccc2)cc1	–	–	6.51 µM [falling, single point]
O=P(c1ccccc1)(c1ccccc1)C(O)c1ccc(Br)cc1 (stereo not drawn)	15	0.116 µM [falling, full curve, poor fit]	–
CCOCCCNCC(=O)Nc1ccccc1N1CCOCC1	-5.3	0.517 µM [falling, full curve, poor fit]	–

An excerpt from above in order of count of non-hydrogen atoms, ascending.
Structure (SMILES)	cell number change [%]	AC50 [1]	AC50 [2]
CCNC(=O)COC(=O)CCC(=O)c1cccs1	131	29.1 µM [rising, single point]	29.1 µM [rising, single point]
O=C(Nc1cccc2ccccc12)c1ccc(Br)o1	9.06	3.66 µM [rising, partial curve, poor fit]	–
CC(=O)Nc1ccc(NC(=S)Nc2ccccc2)cc1	–	–	6.51 µM [falling, single point]
CCCCn1c(N)c(NCc2ccccc2)c(=O)[nH]c1=O	15.1	10.3 µM [rising, partial curve]	–
Cc1nnc(NC(=O)CCn2c(=O)oc3ccc(Cl)cc32)s1	-6.49	29.1 µM [rising, single point]	–
CCOCCCNCC(=O)Nc1ccccc1N1CCOCC1	-5.3	0.517 µM [falling, full curve, poor fit]	–
O=C(CSc1nccc(=O)[nH]1)Nc1ccc(Oc2ccccc2)cc1	12.6	29.1 µM [rising, single point]	–
Cc1ccc(/C=N/NC(=O)c2ccccc2OCc2cccc(Br)c2)o1	40	2.06 µM [rising, partial curve]	0.0058 µM [rising, full curve, poor fit]
COc1ccccc1NC(=O)/C(=C/c1ccncc1)NC(=O)c1ccccc1	4.2	6.51 µM [rising, single point]	–
COc1ccc(/C=C(\C#N)C(=O)OCC(=O)Nc2ccc(C(C)(C)C)cc2)cc1	4.3	0.411 µM [falling, full curve]	–
CCc1nc(SCC(=O)N2c3ccccc3Sc3ccccc32)c2ccccc2n1	8.2	–	–
COc1ccc(-n2ncc3c2CC(C)(C)CC3NC(=O)CCC2=NNC(=O)CC2)cc1 (stereo not drawn)	5.67	–	–
